The list shows a part of the results.
Assays:
Experiment in all cases: log2 fold change, soluble protein after heating vs DMSO (PISA); higher = thermal stabilisation; K562 cells, 10 uM, 30 min; active = over 0.2 and 3.5 SD of the protein, either way, in both replicates (recomputed)
[1] = compound: C1=CC=C(C=C1)[C@H](COC2=CC3=C(C=C2)NC(=O)N3)NC(=O)C4=CC=CN(C4=O)CC5=CC(=C(C=C5)F)F
Outline: (§1)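 Soluble protein was quantified by TMTpro 16plex LC-MS/MS after channel sums were equalised. It was obtained as the supernatant after 21,000xg for 90 min from pooled aliquots of K562 cells (2×10^6 cells/mL, 10 μM compound, 30 min) heated for 3 min across 48°C-58°C and extracted in PBS with 0.5% NP-40 at 4°C. Thermal stability values are relative to control samples and come from duplicates. They are given as log2 fold changes.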

Amino acid sequences for entries named in this document (tags omitted). A change or cut given only in a name is not applied to a line headed by its entry.
UniProt P52655, whole entry, looked up: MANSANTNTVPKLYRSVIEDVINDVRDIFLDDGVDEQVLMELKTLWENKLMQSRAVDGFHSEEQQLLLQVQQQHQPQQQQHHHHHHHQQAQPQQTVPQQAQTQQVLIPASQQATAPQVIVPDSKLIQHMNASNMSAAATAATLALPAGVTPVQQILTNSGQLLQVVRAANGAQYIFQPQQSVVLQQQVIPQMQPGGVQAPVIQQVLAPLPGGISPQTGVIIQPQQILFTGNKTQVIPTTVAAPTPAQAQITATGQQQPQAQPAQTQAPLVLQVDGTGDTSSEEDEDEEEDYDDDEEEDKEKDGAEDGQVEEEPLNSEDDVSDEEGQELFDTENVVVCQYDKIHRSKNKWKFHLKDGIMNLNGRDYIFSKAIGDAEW
UniProt P04921: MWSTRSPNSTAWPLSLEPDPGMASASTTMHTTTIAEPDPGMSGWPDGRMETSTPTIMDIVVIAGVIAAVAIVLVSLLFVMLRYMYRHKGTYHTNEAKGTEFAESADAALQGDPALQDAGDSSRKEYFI
UniProt P13984, whole entry, looked up: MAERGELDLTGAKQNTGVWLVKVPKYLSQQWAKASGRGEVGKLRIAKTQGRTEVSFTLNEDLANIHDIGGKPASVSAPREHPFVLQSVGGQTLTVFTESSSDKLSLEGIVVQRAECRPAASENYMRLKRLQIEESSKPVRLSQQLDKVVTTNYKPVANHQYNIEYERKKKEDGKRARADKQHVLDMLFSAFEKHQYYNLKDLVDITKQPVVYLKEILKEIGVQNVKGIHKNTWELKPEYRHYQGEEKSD
UniProt Q9Y5Q8: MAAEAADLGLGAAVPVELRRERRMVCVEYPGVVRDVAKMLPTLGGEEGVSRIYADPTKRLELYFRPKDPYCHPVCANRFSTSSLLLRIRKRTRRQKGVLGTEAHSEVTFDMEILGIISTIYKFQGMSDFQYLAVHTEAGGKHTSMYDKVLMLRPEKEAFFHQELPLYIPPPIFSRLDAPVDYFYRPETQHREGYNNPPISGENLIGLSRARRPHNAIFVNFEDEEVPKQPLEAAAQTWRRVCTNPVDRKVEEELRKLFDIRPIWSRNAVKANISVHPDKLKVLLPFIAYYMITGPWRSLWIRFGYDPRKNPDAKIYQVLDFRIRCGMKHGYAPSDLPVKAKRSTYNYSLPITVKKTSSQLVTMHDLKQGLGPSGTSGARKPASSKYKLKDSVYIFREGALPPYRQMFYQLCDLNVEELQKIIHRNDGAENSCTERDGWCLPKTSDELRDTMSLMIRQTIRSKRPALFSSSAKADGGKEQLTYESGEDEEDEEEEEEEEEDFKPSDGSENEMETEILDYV
UniProt Q9ULT8: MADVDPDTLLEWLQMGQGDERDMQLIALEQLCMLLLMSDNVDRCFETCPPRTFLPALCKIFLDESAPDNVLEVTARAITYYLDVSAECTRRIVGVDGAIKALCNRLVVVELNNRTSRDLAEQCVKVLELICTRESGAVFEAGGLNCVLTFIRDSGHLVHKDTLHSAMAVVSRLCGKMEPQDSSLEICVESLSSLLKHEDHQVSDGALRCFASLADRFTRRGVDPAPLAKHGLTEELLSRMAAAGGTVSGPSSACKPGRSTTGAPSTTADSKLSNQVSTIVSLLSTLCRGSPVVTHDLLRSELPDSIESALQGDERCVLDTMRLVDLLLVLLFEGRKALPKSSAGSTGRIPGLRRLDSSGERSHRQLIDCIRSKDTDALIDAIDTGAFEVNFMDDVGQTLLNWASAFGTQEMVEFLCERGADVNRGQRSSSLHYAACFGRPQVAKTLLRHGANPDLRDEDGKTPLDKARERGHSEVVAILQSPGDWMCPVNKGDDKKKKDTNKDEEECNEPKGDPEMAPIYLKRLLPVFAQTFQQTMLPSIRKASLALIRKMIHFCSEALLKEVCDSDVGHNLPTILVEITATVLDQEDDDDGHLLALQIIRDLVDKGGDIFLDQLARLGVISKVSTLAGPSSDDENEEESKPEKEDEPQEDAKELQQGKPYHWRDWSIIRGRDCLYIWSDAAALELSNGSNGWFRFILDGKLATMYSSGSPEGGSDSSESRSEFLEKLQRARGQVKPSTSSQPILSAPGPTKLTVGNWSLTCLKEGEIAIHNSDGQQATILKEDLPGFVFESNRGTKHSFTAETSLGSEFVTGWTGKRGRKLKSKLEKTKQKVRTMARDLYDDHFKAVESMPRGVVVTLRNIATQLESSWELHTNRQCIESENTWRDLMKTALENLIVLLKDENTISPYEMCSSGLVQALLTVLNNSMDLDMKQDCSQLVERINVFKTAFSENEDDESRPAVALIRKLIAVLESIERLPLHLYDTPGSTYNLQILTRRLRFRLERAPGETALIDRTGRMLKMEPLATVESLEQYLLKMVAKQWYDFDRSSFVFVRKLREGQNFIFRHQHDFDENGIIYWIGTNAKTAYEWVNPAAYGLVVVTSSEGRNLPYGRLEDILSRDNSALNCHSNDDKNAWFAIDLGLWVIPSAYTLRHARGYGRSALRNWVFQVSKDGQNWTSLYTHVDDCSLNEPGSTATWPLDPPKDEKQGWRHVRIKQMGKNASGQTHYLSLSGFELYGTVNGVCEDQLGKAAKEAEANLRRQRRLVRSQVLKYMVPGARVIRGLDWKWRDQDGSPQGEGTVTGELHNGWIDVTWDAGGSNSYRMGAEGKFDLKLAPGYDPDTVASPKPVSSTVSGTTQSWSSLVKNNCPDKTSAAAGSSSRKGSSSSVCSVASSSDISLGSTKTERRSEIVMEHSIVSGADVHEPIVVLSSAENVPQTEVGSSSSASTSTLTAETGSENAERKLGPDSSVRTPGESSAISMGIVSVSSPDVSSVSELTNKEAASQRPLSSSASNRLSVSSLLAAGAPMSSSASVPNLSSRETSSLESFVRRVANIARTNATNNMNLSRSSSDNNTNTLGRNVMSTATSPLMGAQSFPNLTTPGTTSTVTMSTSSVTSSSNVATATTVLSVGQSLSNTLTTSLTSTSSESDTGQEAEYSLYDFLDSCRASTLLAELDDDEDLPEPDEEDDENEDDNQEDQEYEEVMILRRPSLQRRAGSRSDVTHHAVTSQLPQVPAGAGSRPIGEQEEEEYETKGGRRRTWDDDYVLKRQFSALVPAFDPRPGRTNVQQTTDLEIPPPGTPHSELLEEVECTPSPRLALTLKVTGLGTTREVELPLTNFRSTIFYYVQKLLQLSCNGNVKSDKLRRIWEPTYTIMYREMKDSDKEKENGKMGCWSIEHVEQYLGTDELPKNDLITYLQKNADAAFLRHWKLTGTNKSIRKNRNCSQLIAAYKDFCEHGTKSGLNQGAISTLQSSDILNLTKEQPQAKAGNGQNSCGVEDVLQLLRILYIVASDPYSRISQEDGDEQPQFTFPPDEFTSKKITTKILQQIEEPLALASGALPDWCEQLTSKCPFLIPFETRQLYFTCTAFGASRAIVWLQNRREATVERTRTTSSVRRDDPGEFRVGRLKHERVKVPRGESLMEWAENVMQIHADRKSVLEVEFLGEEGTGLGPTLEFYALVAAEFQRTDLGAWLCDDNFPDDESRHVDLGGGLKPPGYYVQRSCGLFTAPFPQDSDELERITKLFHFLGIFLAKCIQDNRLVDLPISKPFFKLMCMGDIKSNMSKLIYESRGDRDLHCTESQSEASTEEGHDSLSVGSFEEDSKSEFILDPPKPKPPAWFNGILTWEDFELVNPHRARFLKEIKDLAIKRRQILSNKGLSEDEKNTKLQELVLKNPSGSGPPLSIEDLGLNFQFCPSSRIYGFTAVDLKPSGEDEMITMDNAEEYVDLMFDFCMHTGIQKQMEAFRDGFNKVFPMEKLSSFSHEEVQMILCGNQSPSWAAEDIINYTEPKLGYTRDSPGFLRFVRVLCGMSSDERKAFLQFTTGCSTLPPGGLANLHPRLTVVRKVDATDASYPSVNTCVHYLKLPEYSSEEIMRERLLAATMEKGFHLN
UniProt P16403, whole entry, looked up: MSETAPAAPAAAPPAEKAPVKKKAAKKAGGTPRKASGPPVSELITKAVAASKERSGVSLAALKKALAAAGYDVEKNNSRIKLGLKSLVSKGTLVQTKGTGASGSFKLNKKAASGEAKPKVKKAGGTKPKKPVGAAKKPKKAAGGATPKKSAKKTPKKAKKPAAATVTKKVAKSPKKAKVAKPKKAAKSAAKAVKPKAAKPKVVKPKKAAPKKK
UniProt O94992, whole entry, looked up: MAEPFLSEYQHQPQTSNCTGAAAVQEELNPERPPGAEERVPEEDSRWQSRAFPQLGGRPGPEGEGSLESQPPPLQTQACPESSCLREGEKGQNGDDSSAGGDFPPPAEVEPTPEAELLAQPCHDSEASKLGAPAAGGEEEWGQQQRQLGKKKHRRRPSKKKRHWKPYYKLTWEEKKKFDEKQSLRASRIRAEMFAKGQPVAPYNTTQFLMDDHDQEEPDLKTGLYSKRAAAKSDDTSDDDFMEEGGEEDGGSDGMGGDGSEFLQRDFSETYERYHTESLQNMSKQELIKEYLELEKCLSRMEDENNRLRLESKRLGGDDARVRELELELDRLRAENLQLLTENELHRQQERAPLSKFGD
UniProt Q8WUI4: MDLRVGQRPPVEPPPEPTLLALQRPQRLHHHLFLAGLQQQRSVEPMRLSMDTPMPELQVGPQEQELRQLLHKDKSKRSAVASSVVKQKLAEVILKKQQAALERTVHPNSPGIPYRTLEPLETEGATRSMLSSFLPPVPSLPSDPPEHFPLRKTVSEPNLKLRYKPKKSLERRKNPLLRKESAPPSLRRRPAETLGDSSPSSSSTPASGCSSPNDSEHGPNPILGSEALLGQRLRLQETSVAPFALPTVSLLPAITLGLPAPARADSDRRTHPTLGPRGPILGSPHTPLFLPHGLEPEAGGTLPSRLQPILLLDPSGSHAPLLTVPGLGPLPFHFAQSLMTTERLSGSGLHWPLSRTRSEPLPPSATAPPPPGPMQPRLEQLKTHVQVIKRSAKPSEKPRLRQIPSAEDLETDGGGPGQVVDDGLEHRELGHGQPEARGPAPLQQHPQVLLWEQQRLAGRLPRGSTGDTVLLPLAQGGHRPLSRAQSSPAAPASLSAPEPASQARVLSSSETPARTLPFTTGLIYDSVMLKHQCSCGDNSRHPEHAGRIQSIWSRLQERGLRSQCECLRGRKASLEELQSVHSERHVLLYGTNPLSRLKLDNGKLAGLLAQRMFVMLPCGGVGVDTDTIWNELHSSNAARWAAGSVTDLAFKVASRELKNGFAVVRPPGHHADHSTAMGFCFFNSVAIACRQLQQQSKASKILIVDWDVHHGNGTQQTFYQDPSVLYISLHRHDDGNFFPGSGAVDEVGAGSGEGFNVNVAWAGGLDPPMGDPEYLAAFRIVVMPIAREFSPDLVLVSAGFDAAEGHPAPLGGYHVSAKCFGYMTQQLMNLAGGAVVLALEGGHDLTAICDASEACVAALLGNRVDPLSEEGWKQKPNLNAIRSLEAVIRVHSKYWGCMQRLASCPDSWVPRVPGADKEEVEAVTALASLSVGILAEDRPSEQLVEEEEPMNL
UniProt Q6PII5: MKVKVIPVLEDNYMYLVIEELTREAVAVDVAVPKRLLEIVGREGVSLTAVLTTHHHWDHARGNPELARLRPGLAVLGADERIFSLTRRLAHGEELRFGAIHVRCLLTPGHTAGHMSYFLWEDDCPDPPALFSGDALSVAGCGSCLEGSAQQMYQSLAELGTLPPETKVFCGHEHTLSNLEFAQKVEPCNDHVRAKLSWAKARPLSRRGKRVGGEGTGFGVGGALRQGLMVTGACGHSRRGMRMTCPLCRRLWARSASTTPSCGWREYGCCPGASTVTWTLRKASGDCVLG
UniProt Q9Y5Q9: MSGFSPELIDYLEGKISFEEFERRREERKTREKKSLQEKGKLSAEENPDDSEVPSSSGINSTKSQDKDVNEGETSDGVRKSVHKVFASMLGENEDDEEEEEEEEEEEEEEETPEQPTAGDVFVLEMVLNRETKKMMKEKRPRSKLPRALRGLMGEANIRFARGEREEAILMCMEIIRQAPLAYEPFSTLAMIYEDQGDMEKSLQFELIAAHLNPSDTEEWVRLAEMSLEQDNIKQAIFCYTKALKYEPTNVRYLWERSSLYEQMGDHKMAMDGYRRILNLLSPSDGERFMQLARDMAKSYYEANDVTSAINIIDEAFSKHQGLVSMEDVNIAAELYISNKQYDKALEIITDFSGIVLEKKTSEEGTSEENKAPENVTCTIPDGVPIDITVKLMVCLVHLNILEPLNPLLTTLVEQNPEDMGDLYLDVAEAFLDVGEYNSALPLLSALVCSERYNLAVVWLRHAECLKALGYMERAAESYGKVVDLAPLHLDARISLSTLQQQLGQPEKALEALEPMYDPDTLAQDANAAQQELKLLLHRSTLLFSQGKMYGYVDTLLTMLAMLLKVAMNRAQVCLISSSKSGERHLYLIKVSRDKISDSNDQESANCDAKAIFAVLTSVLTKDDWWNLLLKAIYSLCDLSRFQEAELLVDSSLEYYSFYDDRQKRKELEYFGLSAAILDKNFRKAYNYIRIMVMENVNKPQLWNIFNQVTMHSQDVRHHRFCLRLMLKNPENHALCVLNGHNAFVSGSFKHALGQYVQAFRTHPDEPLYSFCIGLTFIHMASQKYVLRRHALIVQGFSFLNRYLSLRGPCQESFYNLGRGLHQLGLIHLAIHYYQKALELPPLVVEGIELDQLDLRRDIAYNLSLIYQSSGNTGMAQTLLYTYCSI

[2] = compound: CC1=C(SC2=C1C(=N[C@H](C3=NN=C(N32)C)CC(=O)N)C4=CC=C(C=C4)Cl)C
Outline: as §1

[3] = compound: CC1=C2C(=CC=C1)N=C(N(C2=O)C3=CC=CC=C3C)CN4C=NC5=C(N=CN=C54)N
Outline: as §1

[4] = compound: Cc1sc2c(c1C)C(c1ccc(Cl)cc1)=N[C@@H](CC(=O)OC(C)(C)C)c1nnc(C)n1-2
Outline: as §1

[5] = compound: c1ccc([C@@H]2C[C@H]2NC2CCNCC2)cc1
Outline: as §1

Measured: log2 fold change

GTF2A1 (UniProt P52655)
inactive: [1] 0.04 | [2] -0.021 | [3] -0.01 | [4] -0.004 | [5] -0.006

HCLS1 (UniProt P14317)
inactive: [1] 0.039 | [2] 0.04 | [3] -0.02 | [4] -0.016 | [5] 0.029

GSN (UniProt P06396)
inactive: [1] -0.047 | [2] -0.031 | [3] 0.08 | [4] 0.022 | [5] 0.009

GSTM4 (UniProt Q03013)
inactive: [1] 0.064 | [2] 0.063 | [3] -0.114 | [4] -0.027 | [5] 0.03

HDAC4 (UniProt P56524)
inactive: [1] -0.191 | [2] -0.017 | [3] 0.031 | [4] -0.07 | [5] 0.152

GYPC (UniProt P04921)
inactive: [1] -0.157 | [2] -0.01 | [3] 0.051 | [4] 0.099 | [5] -0.406

GSTM5 (UniProt P46439)
inactive: [1] -0.018 | [2] -0.009 | [3] 0.043 | [4] 0.068 | [5] 0.044

GTF2F2 (UniProt P13984)
inactive: [1] -0.004 | [2] 0.044 | [3] 0.077 | [4] -0.005 | [5] -0.011

GTF3C5 isoform 3 (UniProt Q9Y5Q8)
inactive: [1] -0.097 | [2] -0.082 | [3] 0.103 | [4] 0.049 | [5] -0.159

HDHD3 (UniProt Q9BSH5)
inactive: [1] -0.025 | [2] 0.071 | [3] 0.064 | [4] -0.129 | [5] 0

GTPBP3 isoform 2 (UniProt Q969Y2)
inactive: [1] -0.032 | [2] -0.006 | [3] 0.097 | [4] -0.029 | [5] -0.026

HEATR6 (UniProt Q6AI08)
inactive: [1] 0.125 | [2] 0.038 | [3] 0.114 | [4] 0.016 | [5] -0.009

GSK3A (UniProt P49840)
inactive: [1] 0.006 | [2] 0.099 | [3] 0.02 | [4] -0.014 | [5] -0.034

GTF3C1 (UniProt Q12789)
inactive: [1] -0.414 | [2] -0.222 | [3] 0.198 | [4] -0.021 | [5] 0.06

HECTD1 (UniProt Q9ULT8)
inactive: [1] 0.009 | [2] 0 | [3] 0.098 | [4] 0.051 | [5] -0.004

H1-2 (UniProt P16403)
inactive: [1] 0.139 | [2] -0.317 | [3] -0.252 | [4] 0.068 | [5] 0

HEXIM1 (UniProt O94992)
inactive: [1] 0.038 | [2] -0.012 | [3] 0.056 | [4] -0.003 | [5] -0.028

HELB (UniProt Q8NG08)
inactive: [1] 0.008 | [2] 0.008 | [3] -0.015 | [4] -0.009 | [5] -0.076

HDAC7 isoform 5 (UniProt Q8WUI4)
inactive: [1] -0.008 | [2] 0.039 | [3] -0.004 | [4] -0.026 | [5] -0.003

Pulled one by one from the list above, two records:
HECTD1 (UniProt Q9ULT8)
inactive: [1] 0.009 | [2] 0 | [3] 0.098 | [4] 0.051 | [5] -0.004

GTF2A1 (UniProt P52655)
inactive: [1] 0.04 | [2] -0.021 | [3] -0.01 | [4] -0.004 | [5] -0.006

(further entries)

HEATR3 (UniProt Q7Z4Q2)
inactive: [1] -0.073 | [2] -0.014 | [3] 0.026 | [4] 0.004 | [5] -0.04

GUSB (UniProt P08236)
inactive: [1] 0.019 | [2] -0.057 | [3] -0.048 | [4] 0.039 | [5] 0.053

HDAC10 (UniProt Q969S8)
inactive: [1] -0.061 | [2] -0.028 | [3] 0.07 | [4] 0.12 | [5] -0.051

HACD3 (UniProt Q9P035)
inactive: [1] 0.011 | [2] 0.049 | [3] 0.058 | [4] -0.047 | [5] 0.05

HAL (UniProt P42357)
inactive: [2] -0.034 | [3] -0.692 | [4] -0.136 | [5] 0.219

HAUS2 (UniProt Q9NVX0)
inactive: [2] 0.051 | [5] 0.069

GSTA1 (UniProt P08263)
inactive: [1] -0.111 | [3] 0.167 | [4] 0.096

HDAC5 isoform 3 (UniProt Q9UQL6)
inactive: [1] -0.061 | [2] 0.006 | [4] 0.082 | [5] 0.055

HAGHL isoform 2 (UniProt Q6PII5)
inactive: [1] -0.168 | [2] -0.134 | [3] 0.068 | [5] -0.12

H3-2 (UniProt Q5TEC6)
inactive: [1] 0.092 | [3] 0.401

GTF3C3 (UniProt Q9Y5Q9)
inactive: [1] -0.097 | [4] 0.04

— the supplement of paper PMC10849652
